According to PubChem BioAssay AID540276 (National Center for Advancing Translational Sciences (NCATS), 2011):
“And” between values parts separate entries of the source, which are not always exact repeats. Identical values can stand only once. Among all 300,000 compounds or so, about 5,400 (1.8%) were called active. The inconclusive results got no clear call from the source; some entries with a clear call stand among them for comparison. Calls come from the whole dose curve; tested in HEK293 cells. Potencies beside an inconclusive call are fits to weak or partial responses and may not hold up.

experiment: qHTS for inhibitors of binding or entry into cells for Marburg Virus; conditions: Marburg virus pseudotyped entry inhibition, cell reporter; activity change, negative = inhibition: at 37.8 µM (top of the series) unless noted
% is set by controls: 0 for no effect and ±100 for the full control effect; potency is the fitted concentration of half-maximal effect.

SMILES	activity change, negative = inhibition	Potency
CCCCCOc1ccccc1CN1C(=O)C(=O)c2cc(C)ccc21	inactive: -26% [at 46.1 µM]	
O=C1CC(=O)N(c2ccccc2)C(=O)N1c1ccccc1	inactive: 14.9% [at 46.1 µM]	
CC1(C)CC(NCc2ccccc2)CCO1 (stereo unspecified)		inconclusive: 3.55 µM [activator, single point]
c1cncc(-c2nc(N3CCOCC3)c3c4c(sc3n2)CCC4)c1		inconclusive: 3.16 µM [inhibitor, partial curve, poor fit]
S=C(Nc1cccc(Cl)c1)NC1CCCCC1	inactive: 14.3%	
COc1ccc(OC)c(-c2csc(NC(=O)CSc3ccc([N+](=O)[O-])cc3)n2)c1		inconclusive: 35.5 µM [inhibitor, single point]
O=C(NCc1ccco1)c1ccc2ccccc2c1		inconclusive: 25.9 µM [inhibitor, single point]
O=C(CCl)N(O)c1ccc(C=Cc2ccccc2)cc1		inconclusive: 3.98 µM [inhibitor, full curve]
COC(=O)C1CC(c2c(OC)cc(OC)cc2OC)=NO1 (stereo unspecified)	inactive: 1.08%	
COc1ccccc1NC(=O)CSc1ccc(-c2ccco2)nn1	inactive: -17.5%	
CCOC(=O)c1cc(-c2ccccc2)nc2c1c(C)nn2-c1ccccn1		inconclusive: 10 µM [inhibitor, partial curve, poor fit]
Cc1cc(NC(=O)c2cnn3cccnc23)n(-c2ccccc2)n1		inconclusive: 29.1 µM [inhibitor, single point]
CCCCN(C)CCNC(=O)c1ccc(Cn2c(=S)[nH]c3ccc(Br)cc3c2=O)cc1		inconclusive: 35.5 µM [inhibitor, single point]
COc1ccc(-c2ccc(CNCCCSc3nnnn3C)o2)cc1Cl	inactive: -18.2% [at 46.1 µM]	
CCCCCCCCSc1nnc(-c2ccc(OC)cc2)o1		inconclusive: 2.82 µM [activator, single point]
O=C(COC(=O)CCc1nc2ccccc2s1)Nc1nc(-c2ccccc2)cs1	inactive: 9.73%	
CC(=O)O[C@@H]1C[C@H]2C(C)(C)C(=O)C=C[C@]2(C)[C@H]2CC[C@@]3(C)[C@H](c4ccoc4)OC(=O)[C@H]4O[C@]43[C@@]21C		inconclusive: 2.06 µM [inhibitor, partial curve, poor fit]
CC(OC(=O)c1cccc(-n2cnnn2)c1)C(=O)Nc1ccc(F)c(F)c1F (stereo unspecified)	inactive: 3.02% [at 46.1 µM]	
OCCNc1nc(Nc2ccccc2)nc(Nc2ccccc2)n1		inconclusive: 3.16 µM [inhibitor, single point]
Cc1c(C)c2c(OCC(=O)NCCCO)cc3c(c2oc1=O)CCC(C)(C)O3		inconclusive: 6.31 µM [inhibitor, single point]
Cc1ccn2c(Nc3ccc(C(C)C)cc3)c(-c3cccnc3)nc2c1		inconclusive: 35.5 µM [inhibitor, single point]
COc1ccc2[nH]c3c(c2c1)CCN1C(=O)C(CC(=O)NCc2ccc(OC)c(OC)c2)C[C@H](C(=O)N2CCOCC2)[C@@]31C (stereo partly specified)	inactive: 2.26%	

SMILES	activity change, negative = inhibition	Potency
Cc1cc(Cl)c(OCCOCCN2CCCCC2)c(Br)c1		inconclusive: 35.5 µM [inhibitor, single point]
Brc1ccc2nc(CSc3ncn[nH]3)cn2c1	inactive: -10.3%	
CCc1ccc(NC2=NCCCS2)cc1	inactive: -1.5% [at 46.1 µM]	
COc1ccc(/C=C/c2nc3ccccc3c(=O)o2)cc1		inconclusive: 1.12 µM [inhibitor, full curve, poor fit]
Cc1c(Cl)ccc2c1NC(=O)[C@]21N[C@@H](Cc2ccccc2)[C@H]2C(=O)N(c3ccc(F)cc3)C(=O)[C@H]21		inconclusive: 11.2 µM [inhibitor, partial curve, poor fit]
Cc1nn(-c2ccc(C(=O)OC(C)C)cc2)c(C)c1[N+](=O)[O-]		inconclusive: 5.62 µM [activator, single point]
COCCCN=Cc1c(C)[nH]n(-c2ccc(Br)c(C)c2)c1=O		inconclusive: 7.08 µM [inhibitor, partial curve, poor fit]
O=C1NC(=O)/C(=C\c2ccccc2OCc2ccc([N+](=O)[O-])cc2)N1		inconclusive: 2.31 µM [inhibitor, partial curve, poor fit]
CC(=O)c1ccc(NC(=O)CN(C)S(=O)(=O)c2cnc[nH]2)cc1	inactive: 19.4% [at 46.1 µM]	
CCCCCOc1ccc(CSC(=N)N)cc1[N+](=O)[O-]		inconclusive: 2.82 µM [inhibitor, single point]
COCCN(CCOC)S(=O)(=O)c1ccc(C(=O)Nc2nc3c(s2)CCc2ccccc2-3)cc1		inconclusive: 22.4 µM [inhibitor, single point]
CC(C)NC(=O)c1ccc(Sc2ccccc2)c([N+](=O)[O-])c1		inconclusive: 0.708 µM [activator, full curve]
COc1ccc([N+](=O)[O-])cc1NC(=O)CC1SC(=Nc2cccc(C)c2C)N(/N=C(\C)c2ccc(C)cc2)C1=O (stereo unspecified)		inconclusive: 1 µM [inhibitor, single point]
CC(=O)c1cccc(NC(=O)CN2C(=O)c3ccccc3C2=O)c1	inactive: -1.01% [at 46.1 µM]	
CC(=O)C1C(c2ccc(F)cc2)NC(=O)NC1(O)C(F)(F)F (stereo unspecified)		inconclusive: 5.62 µM [activator, single point]
O=C(C=Cc1ccco1)c1ccc([N+](=O)[O-])cc1	inactive: -20.9% [at 46.1 µM]	
O=C(Nc1ccc(Cc2ccncc2)cc1)c1ccco1	inactive: -9.01%	
COc1ccccc1N1CCN(C2CCCN(Cc3ccc(Cl)cc3)C2)CC1 (stereo unspecified)		inconclusive: 35.5 µM [inhibitor, single point]
Cc1ccc2cccc(NC(=O)C(C)Oc3ccc(Cl)cc3Cl)c2n1 (stereo unspecified)		inconclusive: 35.5 µM [inhibitor, single point]
COc1ccc(COC(=O)N/N=C2/C[C@@H](O)[C@@H](O)[C@@H]3[C@@H]4C(=O)N(C5CCCCC5)C(=O)[C@H]4CC[C@@H]23)cc1		inconclusive: 0.0067 µM [inhibitor, full curve, poor fit]
Cc1ccc2cc(C(c3nnnn3Cc3ccccc3)N3CCN(c4ccccc4)CC3)c(=O)[nH]c2c1 (stereo unspecified)		active: 20.6 µM

SMILES	activity change, negative = inhibition	Potency
COc1cc(C2=NC(CO)(CO)CO2)cc(OC)c1OC		inconclusive: 35.5 µM [activator, single point]
COC(=O)c1cc(NC(=O)CC2CCCC2)cc(C(=O)OC)c1		inconclusive: 10 µM [inhibitor, partial curve, poor fit]
COCCN1Cc2cccc(C(=O)Nc3cccc(OC)c3)c2C1=O		inconclusive: 35.5 µM [inhibitor, single point]
C/C(=N\Nc1ccc([N+](=O)[O-])cc1)c1ccc(C#N)cc1		inconclusive: 5.62 µM [activator, single point]
COc1ccccc1N(CC(=O)NCCSc1ccccn1)S(=O)(=O)c1ccccc1		inconclusive: 35.5 µM [inhibitor, single point]
Cc1ccc(Cn2nnc3c(=O)[nH]c(C4CCN(S(=O)(=O)c5ccc(C)cc5)CC4)nc32)cc1		inconclusive: 14.6 µM [inhibitor, partial curve, poor fit]
Cc1ccc(C)c(Cn2c(C(=O)O)c(CNCc3cccs3)c3ccccc32)c1		inconclusive: 5.62 µM [inhibitor, single point]
Cc1cc(C)c(OCC(=O)Nc2ccc(S(=O)(=O)N3CCCC3)cc2)c(C)c1		inconclusive: 25.1 µM [inhibitor, single point]
Cc1cc(N/C=C(\C#N)S(=O)(=O)c2ccccc2Cl)nc(C)n1		inconclusive: 0.316 µM [inhibitor, partial curve, poor fit]
CC1CCN(S(=O)(=O)c2ccc(NC(=O)CN3CCN(C)CC3)cc2)CC1		inconclusive: 29.1 µM [inhibitor, single point]
CCC(Sc1nc(N)cc(N)n1)C(=O)O (stereo unspecified)		inconclusive: 4.61 µM [inhibitor, full curve, poor fit]
Cc1ccc(C(C(=O)NC2CCCCC2)N(Cc2ccco2)C(=O)C2COc3ccccc3O2)o1 (stereo unspecified)		inconclusive: 11.2 µM [inhibitor, single point]
CCOc1ccc(NC2=C(Cl)C(=O)N(C3CCCCC3)C2=O)cc1		inconclusive: 20.6 µM [activator, partial curve, poor fit]
CN(C)N1C(N)=C(C#N)C(c2ccc(Cl)cc2)C2=C1CCCC2=O (stereo unspecified)		inconclusive: 2 µM [inhibitor, partial curve, poor fit]
O=C(Nc1cc(Sc2ccccn2)cc([N+](=O)[O-])c1)c1ccc(Cl)cc1		inconclusive: 12.6 µM [inhibitor, single point]
CC(C)(C)NC(=O)C(c1ccc(O)cc1)N(C(=O)CCC(=O)Nc1nccs1)c1cccc(F)c1 (stereo unspecified)		active: 2.31 µM
O=C(Nc1ccccc1[N+](=O)[O-])c1cc(S(=O)(=O)N2CCOCC2)cs1	inactive: -12.6%	
CSc1cccc(NC(=S)N2CCC(c3ccccc3)C2)c1 (stereo unspecified)		inconclusive: 5.01 µM [activator, single point]
COc1cc(C(=O)NNC(=O)/C=C/c2ccco2)cc(OC)c1OC		inconclusive: 0.708 µM [inhibitor, full curve]
CCc1ccc2c(c1)C(=O)CCC2	inactive: 0.998% [at 46.1 µM]	
O=C(Nc1cccnc1)C1CC(c2ccc(Cl)c(Cl)c2)=NO1 (stereo unspecified)		inconclusive: 16.4 µM [inhibitor, partial curve, poor fit]
Cc1ccc(Cn2c(NCCc3ccccc3)nc3c2c(=O)n(C)c(=O)n3C)cc1		inconclusive: 8.2 µM [inhibitor, partial curve, poor fit]
